Measurements as given in publication PMC8276246.
The exact form of at least one protein or probe is not confirmed. The comparison behind a weaker result is the experiment's own reference, which may not be listed here. For part of these data: At least one verdict rests on a figure or table, not on a statement of the authors. For part of these data: Protein sequences can lack the tags named with them.

Amino acid sequences for entries named in this document (tags omitted). A change or cut given only in a name is not applied to a line headed by its entry.
UniProt P0AGE0: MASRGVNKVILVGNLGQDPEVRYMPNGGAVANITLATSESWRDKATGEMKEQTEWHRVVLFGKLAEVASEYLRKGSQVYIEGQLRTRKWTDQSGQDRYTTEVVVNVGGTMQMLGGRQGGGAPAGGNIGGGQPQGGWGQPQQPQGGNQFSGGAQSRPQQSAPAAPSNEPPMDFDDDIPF

Legend:
Assay in all cases: EMSA
[1] = system: B35SSB (Bacillus phage Bam35 (betatectivirus)); details: EMSA: 50 mM Tris-HCl pH 7.5, 50 mM NaCl, 1 mM DTT, 4% glycerol, 0.1 mg/ml BSA, 0.05% Tween 20, 1 mM EDTA, 10 min at 4 C, 2 nM labeled probe, recombinant protein, protein details: N-terminal Strep-tag II, HRV 3C site (pET-52b(+))
[2] = system: B35SSB F48A (Bacillus phage Bam35); details: EMSA: 50 mM Tris-HCl pH 7.5, 50 mM NaCl, 1 mM DTT, 4% glycerol, 0.1 mg/ml BSA, 0.05% Tween 20, 1 mM EDTA, 10 min at 4 C, recombinant protein, protein details: N-terminal Strep-tag II, label: 5' 32P, single-stranded DNA
[3] = system: B35SSB S49A (Bacillus phage Bam35); details: EMSA: 50 mM Tris-HCl pH 7.5, 50 mM NaCl, 1 mM DTT, 4% glycerol, 0.1 mg/ml BSA, 0.05% Tween 20, 1 mM EDTA, 10 min at 4 C, 2 nM labeled probe, recombinant protein, protein details: N-terminal Strep-tag II, label: 5' 32P, single-stranded DNA
[4] = system: B35SSB V124A (Bacillus phage Bam35); details: EMSA: 50 mM Tris-HCl pH 7.5, 50 mM NaCl, 1 mM DTT, 4% glycerol, 0.1 mg/ml BSA, 0.05% Tween 20, 1 mM EDTA, 10 min at 4 C, recombinant protein, protein details: N-terminal Strep-tag II, label: 5' 32P, single-stranded DNA
[5] = system: B35SSB V87A (Bacillus phage Bam35); details: EMSA: 50 mM Tris-HCl pH 7.5, 50 mM NaCl, 1 mM DTT, 4% glycerol, 0.1 mg/ml BSA, 0.05% Tween 20, 1 mM EDTA, 10 min at 4 C, 2 nM labeled probe, recombinant protein, protein details: N-terminal Strep-tag II, label: 5' 32P, single-stranded DNA
[6] = system: B35SSB Y150A (Bacillus phage Bam35); details: EMSA: 50 mM Tris-HCl pH 7.5, 50 mM NaCl, 1 mM DTT, 4% glycerol, 0.1 mg/ml BSA, 0.05% Tween 20, 1 mM EDTA, 10 min at 4 C, 2 nM labeled probe, recombinant protein, protein details: N-terminal Strep-tag II, label: 5' 32P, single-stranded DNA
[7] = system: B35SSB Y150F (Bacillus phage Bam35); details: EMSA: 50 mM Tris-HCl pH 7.5, 50 mM NaCl, 1 mM DTT, 4% glycerol, 0.1 mg/ml BSA, 0.05% Tween 20, 1 mM EDTA, 10 min at 4 C, 2 nM labeled probe, recombinant protein, protein details: N-terminal Strep-tag II, label: 5' 32P, single-stranded DNA
[8] = system: B35SSB K130A (Bacillus phage Bam35); details: strongly reduced; EMSA: 50 mM Tris-HCl pH 7.5, 50 mM NaCl, 1 mM DTT, 4% glycerol, 0.1 mg/ml BSA, 0.05% Tween 20, 1 mM EDTA, 10 min at 4 C; 2 nM labeled probe; recombinant protein; protein details: N-terminal Strep-tag II; label: 5' 32P; single-stranded DNA
[9] = system: B35SSB K156A (Bacillus phage Bam35); details: strongly reduced; EMSA: 50 mM Tris-HCl pH 7.5, 50 mM NaCl, 1 mM DTT, 4% glycerol, 0.1 mg/ml BSA, 0.05% Tween 20, 1 mM EDTA, 10 min at 4 C; 2 nM labeled probe; recombinant protein; protein details: N-terminal Strep-tag II; label: 5' 32P; single-stranded DNA
[10] = system: B35SSB Y117F (Bacillus phage Bam35); details: mainly unstable complexes (smear); EMSA: 50 mM Tris-HCl pH 7.5, 50 mM NaCl, 1 mM DTT, 4% glycerol, 0.1 mg/ml BSA, 0.05% Tween 20, 1 mM EDTA, 10 min at 4 C; 2 nM labeled probe; recombinant protein; protein details: N-terminal Strep-tag II; label: 5' 32P; single-stranded DNA
[11] = system: B35SSB Y63A (Bacillus phage Bam35); details: strongly impaired; EMSA: 50 mM Tris-HCl pH 7.5, 50 mM NaCl, 1 mM DTT, 4% glycerol, 0.1 mg/ml BSA, 0.05% Tween 20, 1 mM EDTA, 10 min at 4 C; 2 nM labeled probe; recombinant protein; protein details: N-terminal Strep-tag II; label: 5' 32P; single-stranded DNA
[12] = system: B35SSB Y63F (Bacillus phage Bam35); details: milder defect than Y63A; EMSA: 50 mM Tris-HCl pH 7.5, 50 mM NaCl, 1 mM DTT, 4% glycerol, 0.1 mg/ml BSA, 0.05% Tween 20, 1 mM EDTA, 10 min at 4 C; 2 nM labeled probe; recombinant protein; protein details: N-terminal Strep-tag II; label: 5' 32P; single-stranded DNA
[13] = target: T1, Φ29 terminal protein (Φ29TP) (Bacillus phage Φ29) (UniProt P03681); details: 20 nM protein, higher affinity for dsDNA; EMSA: 50 mM Tris-HCl pH 7.5, 50 mM NaCl, 1 mM DTT, 4% glycerol, 0.1 mg/ml BSA, 0.05% Tween 20, 1 mM EDTA, 10 min at 4 C; 2 nM labeled probe; label: 5' 32P; single-stranded DNA
T1 sequence (looked up, limits assumed): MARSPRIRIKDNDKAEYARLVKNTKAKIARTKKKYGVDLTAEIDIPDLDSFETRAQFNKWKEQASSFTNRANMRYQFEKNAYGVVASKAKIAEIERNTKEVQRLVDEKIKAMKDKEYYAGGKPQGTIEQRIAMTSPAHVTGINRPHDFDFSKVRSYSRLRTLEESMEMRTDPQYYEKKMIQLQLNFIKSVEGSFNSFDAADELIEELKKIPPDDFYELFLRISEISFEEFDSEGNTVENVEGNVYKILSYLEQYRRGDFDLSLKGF

[14] = target: EcoSSB (Escherichia coli) (UniProt P0AGE0); details: 1 uM protein, binds ssDNA more efficiently; EMSA: 50 mM Tris-HCl pH 7.5, 50 mM NaCl, 1 mM DTT, 4% glycerol, 0.1 mg/ml BSA, 0.05% Tween 20, 1 mM EDTA, 10 min at 4 C; 2 nM labeled probe; label: 5' 32P on strand 1
[15] = no stable complexes even at high protein, very unstable, 2 nM labeled probe
[16] = stable complexes, higher protein concentration required
[17] = more stable complexes than with 33-mer
[18] = mainly unstable complexes (smear), 2 nM labeled probe
[19] = no stable complexes, 2 nM labeled …
[20] = clearly weaker than with 50-mer(2)
[21] = less stable than with 50-mer(2)

“GATCACAGTGAGTACAATAGAACGACGGCCAGTTGTCTCAATCTAACGGC [50-mer(2)]”: binds ([1]; no difference from the other 50-mer, label: 5' 32P, single-stranded DNA); binds more weakly [2, 15]; binds more weakly [3, 16]. “GATCACAGTGAGTACAATAGAACGACGGCCAGTTGTCTCAATCTAACGGC [50-mer(2)]”: binds more weakly [4, 15]; binds more weakly [5, 16]; binds [6, 17]. “GATCACAGTGAGTACAATAGAACGACGGCCAGTTGTCTCAATCTAACGGC [50-mer(2)]”: binds [7, 17].
“AAAAAAAAAAAAAAAAAAAAAAAAAAAAAAAAA [poly-dA 33-mer]”: binds more weakly ([1]; severely impaired, label: 5' 32P, single-stranded DNA).
“GAAAATAAAAATAAACTGGACAATTAAGGATCCTGTACAAGTCGACGCGG [50-mer]”: binds ([1]; whole probe (2 nM) bound at 500 nM protein, label: 5' 32P, single-stranded DNA); binds more weakly [2, 18]; binds more weakly [8]. “GAAAATAAAAATAAACTGGACAATTAAGGATCCTGTACAAGTCGACGCGG [50-mer]”: binds more weakly [9]; binds more weakly ([3]; strongly impaired); binds more weakly [4, 18]. “GAAAATAAAAATAAACTGGACAATTAAGGATCCTGTACAAGTCGACGCGG [50-mer]”: binds more weakly ([5]; mainly unstable complexes (smear)); binds more weakly [10]; binds ([6]; similar to WT). “GAAAATAAAAATAAACTGGACAATTAAGGATCCTGTACAAGTCGACGCGG [50-mer]”: binds ([7]; similar to WT); binds more weakly [11]; binds more weakly [12]. “GAAAATAAAAATAAACTGGACAATTAAGGATCCTGTACAAGTCGACGCGG [50-mer]”: binds more weakly [13].
“GAAAATAAAAATAAACTGGACAATTAAGGATCCTGTACAAGTCGACGCGG (double strand) [50-mer dsDNA]”: binds more weakly ([1]; very faint shift at 1000:1 protein:dsDNA, insignificant, label: 5' 32P on strand 1); binds more weakly [14].
“TTTTTTTTTTTTTTTTTTTTTTTTTTTTTTTTT [poly-dT 33-mer]”: binds more weakly ([1]; smeared gradient, partial or unstable binding, label: 5' 32P, single-stranded DNA).
“ACTGGCCGTCGTTCTATTGTACTCACTGTGATC [33-mer]”: binds more weakly [2, 19]; binds more weakly [3, 20]; binds more weakly [4, 19]. “ACTGGCCGTCGTTCTATTGTACTCACTGTGATC [33-mer]”: binds more weakly [5, 20]; binds more weakly [6, 21]; binds more weakly [7, 21].
